# Measurements reported in the supplement of paper PMC8728848.
# This is one part of the list.
# B1: Blon2355mut (Bifidobacterium longum) (protein)
# chain: MVQEPTLEWHVIPEPTNVEPLVGTCSLPLSGTVVEQRGADDAEAVFARQLVDDIKRVCGGRWQVASGEVQREVTLRTSPSLDDWSYVLEVSPDGVVITGSGFEGVRDGVQTLRQIIRQIGLTIPCMVIRDRPAFSTRGYYLDVTRGRVPSMAWLKSWVDRLCFYKYNQFQLYIEHTFQFNGLSEVWRGADPLTSSDILELDSYCAARGIELVPSVSTFGHHYTALRTRQLRDLGEFPEDADRPFSLIERMTHHTLNITDERSYEFSTSLIDELMPLFRSRKFNICANETFDLGKGRSKQESAKRGVGAMYADFVERLCRHVDDRGHDVMVWADVALEHPEIIDTLPKNITWLNWQYEPNVDDGTTAALADAGATQMVCPAVWCWNALIPRIDDAWNNITRMARHGRAHDVSGMLVTDWGDFGHVNDPRMSVPGMIFGAQQSWNPDAELSEVDMLSRISTIEYGDHTGSVVGALRGASAKGGFSWSDLVTYLELDDGRGGCNTEIVRVMGCLEAYRNDLPQSGQARLADARVSMLRTLRDSILAGRELNGKLDDAAKDITQLLRVAGDPSSAAVWSLAIDGQRLLNRVGLALLAAHGVVRQDEAGIDAAKLADELECWTEQYSRLWHEVSRQSELARIQHVVWRAADVLRSI
# Legend:
# Assay in all cases: glycan array binding signal (z-score within array); higher = stronger binding
# Settings in all cases: glycan notation: IUPAC condensed, linker removed
# [1] = target: Gal(b1-3)GlcNAc(b1-2)Man(a1-3)[GlcNAc(b1-4)][Gal(b1-3)GlcNAc(b1-2)Man(a1-6)]Man(b1-4)GlcNAc(b1-4)GlcNAc
# Outline: (§1)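 Arrays were curated from the Consortium for Functional Glycomics database, 3228 in total, and kept only where the protein sequence was available. Binding is expressed as a within-array Z-score. This score was averaged across arrays of the same protein sequence at different concentrations or buffers and across linkers, and negative values can be read as non-binding.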
# [2] = target: Gal(b1-3)GlcNAc(b1-2)[Gal(b1-3)GlcNAc(b1-6)]Man(a1-6)[Gal(b1-3)GlcNAc(b1-2)Man(a1-3)]Man(b1-4)GlcNAc(b1-4)GlcNAc
# Outline: as §1
# [3] = target: Gal(b1-3)GlcNAc(b1-3)Gal(b1-3)GlcNAc
# Outline: as §1
# [4] = target: Gal(b1-3)GlcNAc(b1-3)Gal(b1-4)Glc
# Outline: as §1
# [5] = target: Gal(b1-3)GlcNAc(b1-3)Gal(b1-4)GlcNAc
# Outline: as §1
# [6] = target: Gal(b1-3)GlcNAc(b1-3)Gal(b1-4)GlcNAc(b1-2)Man(a1-3)[Gal(b1-3)GlcNAc(b1-3)Gal(b1-4)GlcNAc(b1-2)Man(a1-6)]Man(b1-4)GlcNAc(b1-4)GlcNAc
# Outline: as §1
# [7] = target: Gal(b1-3)GlcNAc(b1-3)Gal(b1-4)GlcNAc(b1-2)[Gal(b1-3)GlcNAc(b1-3)Gal(b1-4)GlcNAc(b1-6)]Man(a1-6)[Gal(b1-3)GlcNAc(b1-3)Gal(b1-4)GlcNAc(b1-2)Man(a1-3)]Man(b1-4)GlcNAc(b1-4)[Fuc(a1-6)]GlcNAc
# Outline: as §1
# [8] = target: Gal(b1-3)GlcNAc(b1-3)Gal(b1-4)GlcNAc(b1-3)Gal(b1-4)GlcNAc(b1-2)[Gal(b1-3)GlcNAc(b1-3)Gal(b1-4)GlcNAc(b1-3)Gal(b1-4)GlcNAc(b1-6)]Man(a1-6)[Gal(b1-3)GlcNAc(b1-3)Gal(b1-4)GlcNAc(b1-3)Gal(b1-4)GlcNAc(b1-2)Man(a1-3)]Man(b1-4)GlcNAc(b1-4)[Fuc(a1-6)]GlcNAc
# Outline: as §1
# [9] = target: Gal(b1-3)GlcNAc(b1-3)Gal(b1-4)GlcNAc(b1-6)[Gal(b1-3)GlcNAc(b1-3)]Gal(b1-4)Glc
# Outline: as §1
# [10] = target: Gal(b1-3)GlcNAc(b1-3)Gal(b1-4)[Fuc(a1-3)]GlcNAc(b1-6)[Gal(b1-3)GlcNAc(b1-3)]Gal(b1-4)Glc
# Outline: as §1
# [11] = target: Gal(b1-3)GlcNAc(b1-3)GalNAc
# Outline: as §1
# [12] = target: Gal(b1-3)GlcNAc(b1-6)Gal(b1-4)GlcNAc
# Outline: as §1
# [13] = target: Gal(b1-3)GlcNAc(b1-6)GalNAc
# Outline: as §1
# [14] = target: Gal(b1-3)GlcNAc(b1-6)[Gal(b1-3)]GalNAc
# Outline: as §1
# Gal(b1-3)GlcNAc6S = target: Gal(b1-3)GlcNAc6S
# Outline: as §1
# [15] = target: Gal(b1-3)[Fuc(a1-4)]GlcNAc
# Outline: as §1
# [16] = target: Gal(b1-3)[Fuc(a1-4)]GlcNAc(b1-2)Man
# Outline: as §1
# [17] = target: Gal(b1-3)[Fuc(a1-4)]GlcNAc(b1-2)Man(a1-3)[Gal(b1-3)[Fuc(a1-4)]GlcNAc(b1-2)Man(a1-6)]Man(b1-4)GlcNAc(b1-4)[Fuc(a1-6)]GlcNAc
# Outline: as §1
# [18] = target: Gal(b1-3)[Fuc(a1-4)]GlcNAc(b1-3)Gal(b1-3)[Fuc(a1-4)]GlcNAc
# Outline: as §1
# [19] = target: Gal(b1-3)[Fuc(a1-4)]GlcNAc(b1-3)Gal(b1-4)GlcNAc
# Outline: as §1
# [20] = target: Gal(b1-3)[Fuc(a1-4)]GlcNAc(b1-3)Gal(b1-4)[Fuc(a1-3)]GlcNAc
# Outline: as §1
# [21] = target: Gal(b1-3)[Fuc(a1-4)]GlcNAc(b1-6)GalNAc
# Outline: as §1
# [22] = target: Gal(b1-3)[GlcNAc(b1-6)]GalNAc
# Outline: as §1
# [23] = target: Gal(b1-3)[Neu5Ac(a2-6)]GalNAc
# Outline: as §1
# [24] = target: Gal(b1-3)[Neu5Ac(a2-6)]GlcNAc(b1-4)Gal(b1-4)Glc
# Outline: as §1
# [25] = target: Gal(b1-3)[Neu5Ac(b2-6)]GalNAc
# Outline: as §1
# Gal(b1-4)Gal = target: Gal(b1-4)Gal
# Outline: as §1
# [26] = target: Gal(b1-4)GalNAc(a1-3)[Fuc(a1-2)]Gal(b1-4)GlcNAc
# Outline: as §1
# [27] = target: Gal(b1-4)GalNAc(b1-3)[Fuc(a1-2)]Gal(b1-4)GlcNAc
# Outline: as §1
# Gal(b1-4)Glc = target: Gal(b1-4)Glc
# Outline: as §1
binder,measurement,setting,value
B1,glycan array binding signal (z-score),[1],-1.02
same,glycan array binding signal (z-score),[2],0.925
same,glycan array binding signal (z-score),[3],0.371
same,glycan array binding signal (z-score),[4],-0.735
same,glycan array binding signal (z-score),[5],-0.288
same,glycan array binding signal (z-score),[6],-0.406
same,glycan array binding signal (z-score),[7],2.04
same,glycan array binding signal (z-score),[8],0.301
same,glycan array binding signal (z-score),[9],-0.197
same,glycan array binding signal (z-score),[10],-1.19
same,glycan array binding signal (z-score),[11],-0.373
same,glycan array binding signal (z-score),[12],-0.48
same,glycan array binding signal (z-score),[13],-0.309
same,glycan array binding signal (z-score),[14],0.181
same,glycan array binding signal (z-score),Gal(b1-3)GlcNAc6S,0.237
same,glycan array binding signal (z-score),[15],-0.759
same,glycan array binding signal (z-score),[16],-0.393
same,glycan array binding signal (z-score),[17],0.686
same,glycan array binding signal (z-score),[18],-1.02
same,glycan array binding signal (z-score),[19],-0.01
same,glycan array binding signal (z-score),[20],0.567
same,glycan array binding signal (z-score),[21],-0.606
same,glycan array binding signal (z-score),[22],0.705
same,glycan array binding signal (z-score),[23],-0.387
same,glycan array binding signal (z-score),[24],-0.749
same,glycan array binding signal (z-score),[25],-0.401
same,glycan array binding signal (z-score),Gal(b1-4)Gal,-0.262
same,glycan array binding signal (z-score),[26],-0.55
same,glycan array binding signal (z-score),[27],0.202
same,glycan array binding signal (z-score),Gal(b1-4)Glc,0.223

# Reprinted at random: 2 records from the list
binder,measurement,setting,value
B1,glycan array binding signal (z-score),[17],0.686
same,glycan array binding signal (z-score),[25],-0.401
